Experimental data published in the supplement of paper PMC8960247.
Where a name gives a salt, the structure may show the parent alone. Single values of this set are uncertain.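 Immortalized human renal angiomyolipoma cells with an empty vector keep TSC2 lost. A luminescent ATP assay measured viability, normalized per plate to vehicle-treated wells, in low-serum medium where TSC2-rescued cells fail to grow.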

System: 621-102 (TSC2-deficient)
Assay: relative viability vs DMSO (fraction); higher = less cytotoxic
Conditions: serum: 0.1% FBS, 72 h

Row | SMILES | relative viability (0.0128 nM) | relative viability (0.064 nM) | relative viability (0.32 nM) | relative viability (1.6 nM) | relative viability (8 nM) | relative viability (40 nM) | relative viability (200 nM) | relative viability (1000 nM) | relative viability (5000 nM)
1 | O=C(CCCCCCC(=O)Nc1ccccc1)NO [Vorinostat] | 0.737 | 0.738 | 0.68 | 0.555 | 0.715 | 0.704 | 0.606 | 0.366 | 0.134
2 | C[C@@H]1CCO[C@H]2Cn3cc(C(=O)NCc4ccc(F)cc4F)c(=O)c(O)c3C(=O)N12 | 0.69 | 0.785 | 0.692 | 0.776 | 0.75 | 0.714 | 0.604 | 0.587 | 0.538
3 | N=C(N)NC(=N)NCCc1ccccc1 [Phenformin HCl] | 0.495 | 0.688 | 0.687 | 0.807 | 0.687 | 0.822 | 0.768 | 0.552 | 0.643
4 | CCc1c2c(nc3ccc(OC(=O)N4CCC(N5CCCCC5)CC4)cc13)-c1cc3c(c(=O)n1C2)COC(=O)[C@]3(O)CC [Irinotecan HCl Trihydrate] | 0.815 | 0.841 | 0.821 | 0.789 | 0.785 | 0.729 | 0.715 | 0.705 | 0.086
5 | CC(C)(C)c1cc(NC(=O)Nc2ccc(-c3cn4c(n3)sc3cc(OCCN5CCOCC5)ccc34)cc2)no1 [AC-220] | 0.935 | 0.909 | 1.04 | 1.15 | 1.01 | 1.08 | 0.802 | 0.831 | 0.895
6 | CC(C)C[C@@H](C(=O)N[C@H](C(=O)OC1CCCC1)c1ccccc1)[C@H](O)C(=O)NO [CHR-2797] | 0.815 | 0.849 | 0.742 | 0.79 | 0.611 | 0.551 | 0.403 | 0.263 | 0.254
7 | COc1ccc(S(=O)(=O)N(C(C)=O)c2ccccc2/C=C/c2cc[n+]([O-])cc2)cc1 [HMN-214] | 0.809 | 0.856 | 0.898 | 0.275 | 0.905 | 0.587 | 0.0381 | 0.0479 | 0.0389
8 | COc1cc2ncnc(Nc3ccc(F)c(Cl)c3)c2cc1OCCCN1CCOCC1 [Gefitinib (ZD1839)] | 0.734 | 0.941 | 0.882 | 1.05 | 0.824 | 0.865 | 0.899 | 0.747 | 0.558
9 | CN(C)Cc1cccc(N/C(=C2\C(=O)Nc3cc(C(N)=O)ccc32)c2ccccc2)c1 | 0.709 | 0.748 | 0.693 | 0.758 | 0.701 | 0.675 | 0.625 | 0.632 | 0.594
10 | Fc1cc(-c2cccc3ncc(-c4cnn(C5CCNCC5)c4)nc23)cc(F)c1CN1CCOCC1 [NVP-BSK805 dihydrochloride] | 0.806 | 0.836 | 0.774 | 0.884 | 0.82 | 0.831 | 0.787 | 0.667 | 0.0911
11 | CN1CC2c3ccccc3Oc3ccc(Cl)cc3C2C1 (stereo not drawn) [Asenapine] | 1.25 | 1.29 | 1.53 | 1.49 | 1.07 | 0.858 | 1.17 | 1.43 | 1.23
12 | CCCS(=O)(=O)Nc1ccc(F)c(C(=O)c2c[nH]c3ncc(Cl)cc23)c1F [PLX-4720] | 1.39 | 1.47 | 1.38 | 0.752 | 0.534 | 0.735 | 0.874 | 1.02 | 0.445
13 | Nc1[nH]cnc2ncnc1-2 [Adenine hydrochloride] | 0.775 | 0.702 | 0.708 | 0.732 | 0.712 | 0.682 | 0.667 | 0.67 | 0.508
14 | CCC(C)n1ncn(-c2ccc(N3CCN(c4ccc(OCC5COC(Cn6cncn6)(c6ccc(Cl)cc6Cl)O5)cc4)CC3)cc2)c1=O (stereo not drawn) [Itraconazole] | 0.966 | 0.894 | 0.884 | 0.967 | 0.872 | 0.865 | 0.693 | 0.15 | 0.0141
15 | Nc1ccn([C@H]2CC[C@@H](CO)O2)c(=O)n1 [Zalcitabine] | 0.545 | 0.603 | 0.555 | 0.66 | 0.555 | 0.56 | 0.564 | 0.498 | 0.541
16 | CN(C/C=C/C#CC(C)(C)C)Cc1cccc2ccccc12 [Terbinafine hydrochloride] | 0.676 | 0.629 | 0.539 | 0.609 | 0.51 | 0.566 | 0.457 | 0.612 | 0.559
17 | C=CC(=O)Nc1cc2c(Nc3ccc(F)c(Cl)c3)ncnc2cc1OCCCN1CCOCC1 [CI-1033(Canertinib)] | 0.843 | 0.809 | 0.685 | 0.82 | 0.804 | 0.827 | 0.779 | 0.704 | 0.0103
18 | OCCN(CCO)c1nc(N2CCCCC2)c2nc(N(CCO)CCO)nc(N3CCCCC3)c2n1 [Dipyridamole] | 1.24 | 1.5 | 1.48 | 1.25 | 0.687 | 0.934 | 1.17 | 1.36 | 0.607
19 | C[N+]1(C)[C@@H]2C[C@@H](OC(=O)C(O)(c3cccs3)c3cccs3)C[C@H]1[C@@H]1O[C@@H]12 [Tiotropium Bromide] | 1.05 | 1.15 | 0.997 | 0.967 | 0.813 | 0.654 | 0.779 | 0.902 | 0.546
20 | CC1(COc2ccc3c(c2)ncn3-c2ccc3cccc(N4CCC(N)CC4)c3n2)COC1 | 0.843 | 0.979 | 0.999 | 0.89 | 0.576 | 0.699 | 0.671 | 0.613 | 0.012
21 | Cc1cnc(NC(=O)Nc2cc(Br)c(C)cc2OC[C@@H]2CNCCO2)cn1 | 0.99 | 0.926 | 0.96 | 0.813 | 0.58 | 0.622 | 0.277 | 0.0271 | 0.0175
22 | Nc1nccc(Oc2ccc(NC(=O)c3c[nH]cc(-c4ccc(F)cc4)c3=O)cc2F)c1Cl | 0.906 | 0.921 | 0.837 | 0.787 | 0.803 | 0.859 | 0.809 | 0.635 | 0.0112

Two entries picked at random from those above, as already listed:
Row | SMILES | relative viability (0.0128 nM) | relative viability (0.064 nM) | relative viability (0.32 nM) | relative viability (1.6 nM) | relative viability (8 nM) | relative viability (40 nM) | relative viability (200 nM) | relative viability (1000 nM) | relative viability (5000 nM)
15 | Nc1ccn([C@H]2CC[C@@H](CO)O2)c(=O)n1 [Zalcitabine] | 0.545 | 0.603 | 0.555 | 0.66 | 0.555 | 0.56 | 0.564 | 0.498 | 0.541
1 | O=C(CCCCCCC(=O)Nc1ccccc1)NO [Vorinostat] | 0.737 | 0.738 | 0.68 | 0.555 | 0.715 | 0.704 | 0.606 | 0.366 | 0.134
